At least one compound was matched to its structure with a doubt left.
Legend:
[1] = biological target: T1, serotonin 2A (5-HT2A) receptor (Mus musculus, UniProt P35363); assay: Head twitch response (HTR) in mice; type: in vivo, male C57BL/6J mice; conditions: oral gavage 0.3 mg/kg, N = 8
T1 construct: tissue Charles River UK; host or cells: whole living male C57BL/6J mice (in vivo, oral gavage)

Protein sequences, listed by entry. Tags and fused reporters are not part of them.
UniProt P35363, whole entry: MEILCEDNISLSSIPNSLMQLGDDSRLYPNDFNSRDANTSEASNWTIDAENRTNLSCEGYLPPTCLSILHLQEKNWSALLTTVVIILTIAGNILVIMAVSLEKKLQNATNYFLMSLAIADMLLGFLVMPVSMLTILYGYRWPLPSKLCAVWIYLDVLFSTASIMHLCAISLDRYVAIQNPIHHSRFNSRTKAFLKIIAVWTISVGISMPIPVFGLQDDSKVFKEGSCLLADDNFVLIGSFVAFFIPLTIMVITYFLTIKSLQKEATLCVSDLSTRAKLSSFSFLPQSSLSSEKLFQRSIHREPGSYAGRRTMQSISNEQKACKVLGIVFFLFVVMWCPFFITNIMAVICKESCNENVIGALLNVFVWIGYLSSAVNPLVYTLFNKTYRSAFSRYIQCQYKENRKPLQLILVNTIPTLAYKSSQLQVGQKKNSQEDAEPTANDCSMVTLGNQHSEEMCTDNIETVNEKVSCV

[2] = Kinetic turbidimetric solubility assay; conditions: 10 mM in DMSO, visual
Protocol: Each test compound was diluted to 10 mM in DMSO. From this solution, six further dilutions of each test compound were prepared in DMSO (0.02, 0.1, 0.2, 1, 2, and 5 mM). […] Three replicate wells were designated per concentration. Following the dilutions in buffer, plates were incubated at room temperature shaking for 5 minutes before the absorbance was measured at 620 nm using a Molecular Devices SpectraMax384 UV detector. Nicardipine was tested as a control compound.
Solubility was estimated from the concentration of test compound that produced an increase in absorbance above a threshold of 0.005 absorbance units and was normalized to the DMSO blank.

CN(C)CCc1c[nH]c2cccc(OP(=O)(O)O)c12 [Psilocybin, psilocybin, reference compound]
Mean number of head twitches 0-15 mins [1]: 4 | Mean number of head twitches 15-30 mins [1]: 3.75 | Mean number of head twitches 30-45 mins [1]: 3.13 | Mean number of head twitches 45-60 mins [1]: 1.25 | Mean number of head twitches Total 0-60 mins [1]: 10.83 | Dissolution of 10 mM stock solution in DMSO [2]: Particulates were visible
